Laboratory results published in PubChem BioAssay.
The other results are listed elsewhere or left out. These are further read-outs of the screen, such as a control signal, another cell line or another target. No call is given for them.

Assay: rescue of PC12 cells from polyQ htt toxicity – LDH release (AID 1610)
Details: PC12 mutant huntingtin toxicity, final LDH at 4 uM, stronger effect = lower value

SMILES	normalised LDH release
NCC(O)c1ccc(O)cc1 (stereo unspecified)	0.969
CC(=O)OCC1=C(C(=O)O)N2C(=O)[C@@H](NC(=O)CCCC(N)C(=O)O)C2SC1 (stereo partly specified)	0.862
CCC(=O)O[C@H]1CCC2C3CCC4=CC(=O)CC[C@]4(C)C3CC[C@@]21C (stereo partly specified)	1.15
CC(N)C(O)c1ccccc1 (stereo unspecified)	0.761
CCNC(C)Cc1cccc(C(F)(F)F)c1 (stereo unspecified)	0.831
C#CC1(O)CCC2C3CCC4=CC(=O)CCC4(C)C3CCC21C (stereo unspecified)	0.979
CN1C(=O)C(O)N=C(c2ccccc2)c2cc(Cl)ccc21 (stereo unspecified)	0.774
C[N+](C)(C)CC#CCN1CCCC1=O	0.0173
CC(=O)C1=C(O)C2C3c4c[nH]c5cccc(c45)CC3C(C)(C)N2C1=O (stereo unspecified)	0.884
CCCC(C)C1(CC)C(=O)N=C(S)NC1=O (stereo unspecified)	0.915
CN[C@@H](C)[C@@H](O)c1ccccc1	0.544
O=C1Nc2ccc(Cl)cc2C(c2ccccc2Cl)=NC1O (stereo unspecified)	1.03
N#CC(O[C@@H]1O[C@H](CO[C@@H]2O[C@H](CO)[C@@H](O)[C@H](O)[C@H]2O)[C@@H](O)[C@H](O)[C@H]1O)c1ccccc1 (stereo partly specified)	0.896
CC[C@@H](CO)NC(=O)[C@@H]1C=C2c3cccc4[nH]cc(c34)C[C@H]2N(C)C1	0.79
CN1C2CC(OC(=O)[C@H](CO)c3ccccc3)C[C@H]1CC2O (stereo partly specified)	0.981
CC(C)(C)NCC(O)c1ccccc1Cl (stereo unspecified)	0.924
O=C(O)CCCc1ccc(N(CCCl)CCCl)cc1	0.846
[N-]=[N+]=CC(=O)OCC(N)C(=O)O (stereo unspecified)	3.11

SMILES	normalised LDH release
CNC(C)Cc1ccc2c(c1)OCO2 (stereo unspecified)	0.96
O=[N+]([O-])c1cc([As](=O)(O)O)ccc1O	0.851
CNC(C)Cc1ccccc1 (stereo unspecified)	0.986
C[N+](C)(C)CC(=O)[O-]	0.928
CNC(C)C(=O)c1ccccc1 (stereo unspecified)	1.07
CC(C)CC(NC(=O)C(Cc1ccccc1)NC(=O)CNC(=O)CNC(=O)C(N)Cc1ccc(O)cc1)C(=O)O (stereo unspecified)	0.98
CC[C@@H]1/C=C/C=C/C[C@H](C)[C@@H](O)[C@](C)(O)C(=O)[C@H](C)[C@@H](O)[C@H](C)C(=O)[C@H](C)[C@@H](O)[C@H](C)/C=C/C(=O)O[C@H]2[C@@H](C)[C@@H](CC1)O[C@@]1(CC[C@@H](C)[C@@H](C[C@H](C)O)O1)[C@@H]2C	0.382
CN(C)[C@@H]1C(=O)C(C(N)=O)=C(O)[C@@]2(O)C(=O)C3=C(O)c4c(O)cccc4[C@@](C)(O)[C@H]3C[C@@H]12	1.06
C[CH2][Hg][S]c1ccccc1C(=O)O	0.976
COc1ccc(C[C@H]2NC[C@H](O)[C@H]2OC(C)=O)cc1	1.14
CN=C1CN(O)C(c2ccccc2)=c2cc(Cl)ccc2=N1	0.847
CC(N)Cc1ccc2c(c1)OCO2 (stereo unspecified)	0.982
C[C@]12CCC(=O)C=C1CCC1C2CC[C@@]2(C)C1CC[C@@H]2O (stereo partly specified)	1.16
NC(=O)CN1CCCC1=O	1.81
Clc1ccc(COC(Cn2ccnc2)c2ccc(Cl)cc2Cl)c(Cl)c1 (stereo unspecified)	0.927
C[C@@H]([C@H](O)c1ccccc1)N(C)C	1.13
C=CCC1(C(C)CCC)C(=O)N=C(S)NC1=O (stereo unspecified)	0.516
CN(C)[C@@H]1C(=O)C(C(N)=O)=C(O)[C@@]2(O)C(=O)C3=C(O)c4c(O)ccc(Cl)c4[C@@](C)(O)[C@H]3C[C@@H]12	0.671

Two of these compounds in a different format:
SMILES,normalised LDH release
C[N+](C)(C)CC(=O)[O-],0.928
CNC(C)C(=O)c1ccccc1 (stereo unspecified),1.07
